Residue numbers refer to the chain shown, from its start. No constants are given. Whether binding was seen depends on the method and setting. Binding can be weak; no strength is given.
B1: 23B8 (antibody, V domains shown)
VH: QVTLKESGGGLVKPGGSLRLSCAASGFPFSNAWMNWVRQAPGKGLEWVGHIKSKTDGGTTDYAAPVKGRFTISRDDSKNMVFLQMNSLKTEDTAVYYCTTDRAYCGGDCSHYYYHDLDVWGQGTTVTVSS
B2: 24A1 (antibody, human IgG1, V domains shown)
VH: EVQLVESGGGLVQPGGSLRLTCAASGFTFSSYAMSWVRQAPGKGLERVSEISGSGSSTNYADSVKGRFTISRDNSKNTLYLQMNSLRAEDTAVYYCAKDDSSGWAFNIWDQGTVVTVSS
B3: 24G5 (antibody, human IgG1, V domains shown)
VH: B2 VH with E1Q, V2L, V5Q, Y32F, G53D, S56G, S57N, N59Y

Each binder was assayed against His-tagged monkey TFR1 protein (monkey (Macaca fascicularis)) (assay: SPR, Biacore 8K).

binding, binds:
B1
B2
B3
